Data source: PubChem BioAssay AID504764 (Drosophila RNAi Screening Center, 2011)

Test: 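Genes whose knock-down alters Notch-dependent transcription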 (primary screen)
System: Drosophila Kc167 cells
Reagents: long dsRNA against Drosophila genes
Timing: about 5 days (4 days dsRNA, then 24 h after transfection)
Challenge: transfection of constitutively active membrane-tethered Notch lacking the extracellular domain, read 24 h later
Measured: 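Light from a Notch-responsive E(spl)m3 luciferase reporter under active Notch, with control-promoter and no-Notch reporter wells to normalise; raw counts from paired wells a and b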
Scale: induced reporter light, run 1, well a and induced reporter light, run 1, well b: higher = more light from the Notch target reporter with active Notch; control promoter light, run 1, well a and control promoter light, run 1, well b: higher = more light from the viral control promoter (cell number, transfection, viability); uninduced reporter light, run 1, well a: higher = more light from the Notch target reporter without active Notch
Active means: 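Wells with low control signal or poorly matching duplicates excluded; duplicates averaged; per source plate, z beyond ±2 for induced/control log2 ratio or beyond ±1.8 for induced/uninduced marks a hit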
Calls: active = modifier hit (raised or lowered Notch signal); inactive = not a hit
The deposit covers about 22,000 reagents; shown is a random part of those with a known target gene and a result. In the full data, 403 (1.9%) got an active call. 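Unnormalised raw counts per well; ratio z-scores behind the hit calls and whether each hit raises or lowers signal are not deposited.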 Names joined by + are all predicted targets of the reagent. The record does not give: the amount of reagent.

The first 3 entries, ahead of the listing:
| gene knocked down | amplicon | induced reporter light, run 1, well a | induced reporter light, run 1, well b | control promoter light, run 1, well a | control promoter light, run 1, well b | uninduced reporter light, run 1, well a | Call |
| --- | --- | --- | --- | --- | --- | --- | --- |
| Bub3 | DRSC14168 | 79910 | 1.04e5 | 1.11e5 | 1.08e5 | 8810 | inactive |
| rho-7 | DRSC07304 | 1.15e5 | 1.10e5 | 1.13e5 | 1.10e5 | 8625 | inactive |
| Nuf2 | DRSC03123 | 1.15e5 | 1.30e5 | 1.36e5 | 1.62e5 | 13360 | inactive |

The listing, from the first entry:
| gene knocked down | amplicon | induced reporter light, run 1, well a | induced reporter light, run 1, well b | control promoter light, run 1, well a | control promoter light, run 1, well b | uninduced reporter light, run 1, well a | Call |
| --- | --- | --- | --- | --- | --- | --- | --- |
| Bub3 | DRSC14168 | 79910 | 1.04e5 | 1.11e5 | 1.08e5 | 8810 | inactive |
| rho-7 | DRSC07304 | 1.15e5 | 1.10e5 | 1.13e5 | 1.10e5 | 8625 | inactive |
| Nuf2 | DRSC03123 | 1.15e5 | 1.30e5 | 1.36e5 | 1.62e5 | 13360 | inactive |
| CG8172 | DRSC07089 | 1.83e5 | 1.96e5 | 3.17e5 | 2.23e5 | 18870 | inactive |
| Tbcd | DRSC00273 | 1.46e5 | 1.77e5 | 2.19e5 | 2.21e5 | 16200 | inactive |
| twz | DRSC04069 | 35235 | 28620 | 31610 | 25380 | 3360 | inactive |
| CG42262 (retired record) | DRSC17628 | 77700 | 72435 | 79060 | 78695 | 4450 | inactive |
| CG42262 (retired record) | DRSC17974 | 1.15e5 | 99040 | 1.55e5 | 1.60e5 | 8750 | inactive |
| CG9624 | DRSC16523 | 3.14e5 | 2.53e5 | 2.51e5 | 2.62e5 | 20700 | inactive |
| CG5262 | DRSC11773 | 1.14e5 | 1.52e5 | 72585 | 70280 | 10025 | inactive |
| CG15040 | DRSC19616 | 1.76e5 | 1.50e5 | 2.51e5 | 2.98e5 | 12750 | inactive |
| Lamtor2 + CG30120 | DRSC05726 | 1.10e5 | 1.25e5 | 1.53e5 | 1.37e5 | 9865 | inactive |
| Lamtor2 + CG30120 | DRSC06922 | 1.21e5 | 94395 | 1.14e5 | 1.09e5 | 9178 | inactive |
| CAH4 | DRSC22433 | – | – | – | – | – | active |
| Usp14 | DRSC02853 | 2.16e5 | 2.45e5 | 1.60e5 | 1.89e5 | 14920 | inactive |
| Cog6 | DRSC06806 | 2.09e5 | 1.90e5 | 1.68e5 | 1.65e5 | 15355 | inactive |
| CG6495 | DRSC01993 | 2.39e5 | 2.14e5 | 1.78e5 | 1.81e5 | 16495 | inactive |
| PGRP-SC2 | DRSC06481 | 2.07e5 | 1.74e5 | 1.94e5 | 2.53e5 | 17590 | inactive |
| CG42506 (retired record) + CG43759 | DRSC19464 | 1.25e5 | 98665 | 78420 | 60940 | 8225 | inactive |
| CG42506 (retired record) + CG43759 | DRSC19543 | 47315 | 42460 | 36385 | 35490 | 8805 | inactive |
| loopin-1 | DRSC06888 | 1.32e5 | 1.32e5 | 2.61e5 | 2.23e5 | 9000 | inactive |
| Fancd2 | DRSC15208 | 2.24e5 | 1.86e5 | 2.00e5 | 2.18e5 | 14540 | inactive |
| ND-B17.2 | DRSC00577 | 1.32e5 | 1.44e5 | 1.15e5 | 66975 | 9330 | inactive |
| CG42697 | DRSC05740 | 1.08e5 | 1.33e5 | 1.63e5 | 1.33e5 | 8035 | inactive |
| CG7896 | DRSC16335 | 1.89e5 | 2.01e5 | 2.80e5 | 2.52e5 | 16200 | inactive |
| CG42561 | DRSC05676 | 1.09e5 | 1.14e5 | 1.72e5 | 1.35e5 | 8985 | inactive |
| Edem1 | DRSC18573 | 1.96e5 | 1.70e5 | 2.41e5 | 2.53e5 | 13450 | inactive |
| CG15446 | DRSC20518 | 1.04e5 | 1.03e5 | 1.41e5 | 1.38e5 | 11825 | inactive |
| RpS8 | DRSC16318 | 5938 | 8750 | 15210 | 12945 | 970 | inactive |
| bond | DRSC16135 | 1.20e5 | 1.20e5 | 1.36e5 | 1.28e5 | 10475 | inactive |
| CG42516 + Pbp49 | DRSC06073 | 1.83e5 | 1.81e5 | 1.90e5 | 1.95e5 | 14865 | inactive |
| cnc | DRSC14676 | 1.72e5 | 1.77e5 | 2.06e5 | 2.05e5 | 13455 | inactive |
| cnc | DRSC15289 | 45920 | 41225 | 2.90e5 | 3.49e5 | 4725 | active |
| cnc | DRSC15600 | 2.10e5 | 1.40e5 | 2.79e5 | 2.68e5 | 16092 | inactive |
| cnc | DRSC15601 | 1.62e5 | 1.67e5 | 2.25e5 | 2.07e5 | 12345 | inactive |
| CG30089 | DRSC06126 | 51190 | 59045 | 76355 | 1.02e5 | 4065 | inactive |
| CG30089 | DRSC06127 | 5630 | 4235 | 6732 | 4755 | 1035 | inactive |
| CG30089 | DRSC06267 | 1.24e5 | 82280 | 1.55e5 | 1.48e5 | 9182 | inactive |
| CG30089 | DRSC06268 | 1.92e5 | 1.72e5 | 2.83e5 | 2.48e5 | 13205 | inactive |
| CG30089 | DRSC21694 | – | – | – | – | – | inactive |
| PPYR1 | DRSC19612 | 51695 | 53710 | 66665 | 84545 | 6810 | inactive |
| CheB38c | DRSC02389 | 48375 | 38595 | 52440 | 39825 | 2545 | inactive |
| Nop60B | DRSC04627 | 1.57e5 | 2.05e5 | 1.59e5 | 1.47e5 | 11725 | inactive |
| CG13954 | DRSC06442 | 1.96e5 | 2.00e5 | 2.14e5 | 2.19e5 | 14965 | inactive |
| Acph-1 | DRSC14103 | 95665 | 88295 | 1.28e5 | 1.25e5 | 8110 | inactive |
| eIF2Bbeta | DRSC18465 | 1.12e5 | 1.19e5 | 1.78e5 | 1.85e5 | 6880 | inactive |
| CG7953 | DRSC01902 | 2.00e5 | 2.24e5 | 2.07e5 | 2.07e5 | 16485 | inactive |
| GstD8 | DRSC16689 | 53215 | 55025 | 56855 | 48545 | 4265 | inactive |
| CG32354 | DRSC10763 | 1.15e5 | 1.05e5 | 77110 | 23810 | 9575 | inactive |
| CG32354 | DRSC10775 | 2.16e5 | 1.95e5 | 1.89e5 | 1.79e5 | 10300 | inactive |
